Results as given in patent US20220031857A1.
No constants are given. Whether binding was seen depends on the method and setting. Some binding calls cover weakened binding; strength is not graded here.

Protein sequences, listed by entry. Tags and fused reporters are not part of them. Residues count along the entry.
UniProt Q62351, residues 89-763: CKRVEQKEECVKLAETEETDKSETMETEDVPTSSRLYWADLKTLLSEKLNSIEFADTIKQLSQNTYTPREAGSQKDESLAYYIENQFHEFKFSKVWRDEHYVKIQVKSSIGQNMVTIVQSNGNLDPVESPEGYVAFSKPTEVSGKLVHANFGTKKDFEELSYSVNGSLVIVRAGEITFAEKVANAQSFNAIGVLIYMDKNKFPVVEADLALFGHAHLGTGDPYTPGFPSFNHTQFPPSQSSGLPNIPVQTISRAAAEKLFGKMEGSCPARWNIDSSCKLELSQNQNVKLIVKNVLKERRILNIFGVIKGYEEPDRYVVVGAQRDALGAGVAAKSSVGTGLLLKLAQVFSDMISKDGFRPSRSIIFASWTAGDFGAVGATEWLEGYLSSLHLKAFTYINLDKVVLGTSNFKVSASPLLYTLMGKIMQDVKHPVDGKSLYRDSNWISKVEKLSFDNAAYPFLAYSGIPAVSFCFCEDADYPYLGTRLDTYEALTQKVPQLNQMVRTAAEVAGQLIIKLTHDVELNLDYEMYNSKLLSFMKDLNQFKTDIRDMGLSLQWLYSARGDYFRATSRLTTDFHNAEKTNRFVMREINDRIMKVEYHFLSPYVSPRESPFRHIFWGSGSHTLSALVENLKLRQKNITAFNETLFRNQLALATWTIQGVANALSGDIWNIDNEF

Target: recombinant mouse TfR1 (transferrin receptor 1) (mouse) (UniProt Q62351)
Assay: ELISA

B1: IDUA-clone 1-hFc (Fc fusion, not shown: a dimerising Fc or GST)
chain (part 1 of 2): ARVDQTPQTITKETGESLTINCVLRDNNCALSTTYWYRKKSGSTNEENISKGGRYVETVNSGSKSFSLKINDLTVEDSGTYRCNVRDVQACGNDWVWLDVYGGGTVVTVNA
chain (part 2 of 2): APHLVHVDAARALWPLRRFWRSTGFCPPLPHSQADQYVLSWDQQLNLAYVGAVPHRGIKQVRTHWLLELVTTRGSTGRGLSYNFTHLDGYLDLLRENQLLPGFELMGSASGHFTDFEDKQQVFEWKDLVSSLARRYIGRYGLAHVSKWNFETWNEPDHHDFDNVSMTMQGFLNYYDACSEGLRAASPALRLGGPGDSFHTPPRSPLSWGLLRHCHDGTNFFTGEAGVRLDYISLHRKGARSSISILEQEKVVAQQIRQLFPKFADTPIYNDEADPLVGWSLPQPWRADVTYAAMVVKVIAQHQNLLLANTTSAFPYALLSNDNAFLSYHPHPFAQRTLTARFQVNNTRPPHVQLLRKPVLTAMGLLALLDEEQLWAEVSQAGTVLDSNHTVGVLASAHRPQGPADAWRAAVLIYASDDTRAHPNRSVAVTLRLRGVPPGPGLVYVTRYLDNGLCSPDGEWRRLGRPVFPTAEQFRRMRAAEDPVAAAPRPLPAGGRLTLRPALRLPSLLLVHVCARPEKPPGQVTRLRALPLTQGQLVLVWSDEHVGSKCLWTYEIQFSQDGKAYTPVSRKPSTFNLFVFSPDTGAVSGSYRVRALDYWARPGPFSDPVPYLEVPVPRGPPSPGNP
  binding: binds

B2: IDUA-clone 10-hFc (Fc fusion, not shown: a dimerising Fc or GST)
chain (part 1 of 2): ARVDQTPQTITKETGESLTINCVLRDSNCALSSTYWYRKKSGSTNEENISKGGRYVETVNSGSKSFSLRINDLTVEDSGTYRCNVVQYPSYNNYFWCDVYGDGTAVTVNA
chain (part 2 of 2): B1 chain (part 2 of 2)
  binding: binds
